The source of these data is publication PMC5585206.

Results are given in words; binding and its absence hold for the method and conditions named. In cells and extracts the contact can be indirect. Some results given as binding are weak or reduced against the parent protein; the word gives no strength.

The target of assay [1] is T1, IKKε (human (from the printed accession Q14164)) (UniProt Q14164).
T1 sequence: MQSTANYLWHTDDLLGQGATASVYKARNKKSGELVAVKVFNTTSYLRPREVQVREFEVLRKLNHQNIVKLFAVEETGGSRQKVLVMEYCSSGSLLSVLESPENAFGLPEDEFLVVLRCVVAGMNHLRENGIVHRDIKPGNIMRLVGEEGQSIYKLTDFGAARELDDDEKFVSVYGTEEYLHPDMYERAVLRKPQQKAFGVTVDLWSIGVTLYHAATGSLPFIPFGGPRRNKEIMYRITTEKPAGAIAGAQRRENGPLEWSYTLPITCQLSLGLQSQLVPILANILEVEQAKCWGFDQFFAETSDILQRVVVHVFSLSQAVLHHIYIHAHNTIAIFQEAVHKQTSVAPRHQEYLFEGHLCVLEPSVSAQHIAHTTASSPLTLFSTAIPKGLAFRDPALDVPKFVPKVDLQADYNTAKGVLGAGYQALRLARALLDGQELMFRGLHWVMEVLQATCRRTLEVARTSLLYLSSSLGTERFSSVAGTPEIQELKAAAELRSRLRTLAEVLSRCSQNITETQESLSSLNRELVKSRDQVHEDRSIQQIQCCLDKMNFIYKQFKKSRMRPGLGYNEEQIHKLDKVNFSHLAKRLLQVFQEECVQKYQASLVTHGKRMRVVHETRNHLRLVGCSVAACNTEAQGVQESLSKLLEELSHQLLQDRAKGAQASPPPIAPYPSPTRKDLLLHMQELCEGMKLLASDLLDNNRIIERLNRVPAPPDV
Nature of the assay: co-IP.

Assay [2] concerns the target T2, TANK-binding kinase 1 (TBK1) (human (from the printed accession Q9UHD2)) (UniProt Q9UHD2).
T2 sequence: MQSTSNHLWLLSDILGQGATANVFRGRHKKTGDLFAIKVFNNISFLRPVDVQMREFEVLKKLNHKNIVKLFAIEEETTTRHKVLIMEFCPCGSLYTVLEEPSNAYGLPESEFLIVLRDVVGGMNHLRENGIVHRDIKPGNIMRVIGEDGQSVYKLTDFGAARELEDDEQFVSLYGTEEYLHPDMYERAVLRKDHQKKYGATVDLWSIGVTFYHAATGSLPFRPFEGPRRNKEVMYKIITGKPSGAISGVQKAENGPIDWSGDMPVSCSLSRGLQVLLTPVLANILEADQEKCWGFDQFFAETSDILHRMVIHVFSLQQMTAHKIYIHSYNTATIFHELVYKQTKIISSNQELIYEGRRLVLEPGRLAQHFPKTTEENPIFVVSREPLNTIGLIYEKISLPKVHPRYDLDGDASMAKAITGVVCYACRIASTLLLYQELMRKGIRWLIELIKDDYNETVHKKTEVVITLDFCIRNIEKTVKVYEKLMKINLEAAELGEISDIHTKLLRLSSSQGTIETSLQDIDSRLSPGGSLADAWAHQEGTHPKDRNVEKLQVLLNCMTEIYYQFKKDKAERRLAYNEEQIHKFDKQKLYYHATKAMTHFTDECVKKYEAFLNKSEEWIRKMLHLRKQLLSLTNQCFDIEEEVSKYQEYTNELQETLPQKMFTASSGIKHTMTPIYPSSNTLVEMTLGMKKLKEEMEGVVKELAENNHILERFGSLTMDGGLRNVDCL
Nature of the assay: co-IP.

For “cytokine response modifier A (CrmA) (from UniProt P07385 1-341)”, the binding entry in assay [1] and in assay [2] was “binds” each time.
